Results as given in the supplement of paper PMC10849652.
The list shows a part of the results.

The chains behind the UniProt entries cited, without tags or fusion partners. Where a name states a change or a piece, a line headed by the entry shows the natural chain unless it says otherwise.
UniProt P56962: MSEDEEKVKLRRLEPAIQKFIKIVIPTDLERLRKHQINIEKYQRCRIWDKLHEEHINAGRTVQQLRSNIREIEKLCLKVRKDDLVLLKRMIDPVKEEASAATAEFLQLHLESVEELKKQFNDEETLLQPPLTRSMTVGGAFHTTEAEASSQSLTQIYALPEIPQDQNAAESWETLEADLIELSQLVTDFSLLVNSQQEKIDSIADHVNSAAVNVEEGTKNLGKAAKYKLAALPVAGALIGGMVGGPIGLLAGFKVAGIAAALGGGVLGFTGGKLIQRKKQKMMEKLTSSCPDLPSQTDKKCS
UniProt Q16514: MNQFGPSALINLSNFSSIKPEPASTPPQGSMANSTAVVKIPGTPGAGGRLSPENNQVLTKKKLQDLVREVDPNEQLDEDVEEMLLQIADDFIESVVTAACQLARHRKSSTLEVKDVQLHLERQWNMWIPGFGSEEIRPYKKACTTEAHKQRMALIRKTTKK
UniProt O75410: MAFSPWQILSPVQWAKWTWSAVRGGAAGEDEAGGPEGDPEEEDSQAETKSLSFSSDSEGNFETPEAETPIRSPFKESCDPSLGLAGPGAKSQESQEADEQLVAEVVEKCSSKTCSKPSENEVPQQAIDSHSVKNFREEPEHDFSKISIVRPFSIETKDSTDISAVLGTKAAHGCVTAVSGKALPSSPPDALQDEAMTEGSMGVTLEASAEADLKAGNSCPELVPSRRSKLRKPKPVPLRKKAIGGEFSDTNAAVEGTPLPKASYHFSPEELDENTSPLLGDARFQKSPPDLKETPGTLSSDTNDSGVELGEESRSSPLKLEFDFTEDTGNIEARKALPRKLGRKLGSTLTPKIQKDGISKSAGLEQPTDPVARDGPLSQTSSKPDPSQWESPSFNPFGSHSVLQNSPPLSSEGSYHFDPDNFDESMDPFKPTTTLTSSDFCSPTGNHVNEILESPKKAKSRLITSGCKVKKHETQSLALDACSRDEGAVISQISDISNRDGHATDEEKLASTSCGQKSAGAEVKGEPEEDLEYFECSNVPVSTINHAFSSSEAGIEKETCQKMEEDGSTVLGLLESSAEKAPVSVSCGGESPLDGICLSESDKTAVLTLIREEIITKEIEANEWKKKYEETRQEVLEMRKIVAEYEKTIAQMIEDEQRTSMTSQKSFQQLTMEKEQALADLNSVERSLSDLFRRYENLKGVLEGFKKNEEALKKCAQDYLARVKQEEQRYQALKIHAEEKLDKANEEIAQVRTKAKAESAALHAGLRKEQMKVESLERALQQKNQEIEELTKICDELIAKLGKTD
UniProt Q9UJZ1: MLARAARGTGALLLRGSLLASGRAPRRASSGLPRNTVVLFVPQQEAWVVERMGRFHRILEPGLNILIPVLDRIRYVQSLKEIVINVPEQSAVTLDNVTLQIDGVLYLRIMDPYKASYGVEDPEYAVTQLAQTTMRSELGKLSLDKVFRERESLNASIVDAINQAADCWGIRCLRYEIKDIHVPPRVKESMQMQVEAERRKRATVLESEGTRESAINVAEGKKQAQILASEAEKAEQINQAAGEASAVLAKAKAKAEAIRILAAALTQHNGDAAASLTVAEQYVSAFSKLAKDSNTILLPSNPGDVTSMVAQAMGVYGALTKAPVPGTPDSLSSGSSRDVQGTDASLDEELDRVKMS
UniProt Q9H7L9: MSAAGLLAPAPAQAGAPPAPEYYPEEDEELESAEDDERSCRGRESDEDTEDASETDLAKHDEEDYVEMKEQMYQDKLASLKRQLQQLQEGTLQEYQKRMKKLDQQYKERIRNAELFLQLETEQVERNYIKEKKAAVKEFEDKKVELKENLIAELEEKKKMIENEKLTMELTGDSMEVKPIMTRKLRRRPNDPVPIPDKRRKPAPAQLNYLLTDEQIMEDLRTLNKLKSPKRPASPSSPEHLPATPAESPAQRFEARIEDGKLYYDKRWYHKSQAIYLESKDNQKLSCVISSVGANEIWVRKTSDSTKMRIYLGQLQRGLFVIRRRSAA
UniProt P49848, whole entry, looked up: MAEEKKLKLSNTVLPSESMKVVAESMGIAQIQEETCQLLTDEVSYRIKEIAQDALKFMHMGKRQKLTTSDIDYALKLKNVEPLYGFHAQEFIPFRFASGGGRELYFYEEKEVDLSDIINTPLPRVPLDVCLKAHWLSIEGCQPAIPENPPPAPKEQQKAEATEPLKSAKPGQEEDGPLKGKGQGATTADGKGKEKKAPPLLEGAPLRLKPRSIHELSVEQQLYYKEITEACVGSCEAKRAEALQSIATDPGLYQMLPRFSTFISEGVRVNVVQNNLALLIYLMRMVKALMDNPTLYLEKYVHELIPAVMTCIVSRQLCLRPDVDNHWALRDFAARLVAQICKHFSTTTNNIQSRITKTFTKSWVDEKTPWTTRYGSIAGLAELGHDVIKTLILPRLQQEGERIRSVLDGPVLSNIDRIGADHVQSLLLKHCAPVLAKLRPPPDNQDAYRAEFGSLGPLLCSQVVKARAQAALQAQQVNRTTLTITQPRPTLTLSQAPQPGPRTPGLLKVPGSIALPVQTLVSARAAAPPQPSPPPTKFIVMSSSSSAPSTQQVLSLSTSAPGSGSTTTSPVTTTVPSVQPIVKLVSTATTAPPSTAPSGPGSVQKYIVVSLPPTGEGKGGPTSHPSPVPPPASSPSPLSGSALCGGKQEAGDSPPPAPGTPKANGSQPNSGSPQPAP
UniProt Q13190: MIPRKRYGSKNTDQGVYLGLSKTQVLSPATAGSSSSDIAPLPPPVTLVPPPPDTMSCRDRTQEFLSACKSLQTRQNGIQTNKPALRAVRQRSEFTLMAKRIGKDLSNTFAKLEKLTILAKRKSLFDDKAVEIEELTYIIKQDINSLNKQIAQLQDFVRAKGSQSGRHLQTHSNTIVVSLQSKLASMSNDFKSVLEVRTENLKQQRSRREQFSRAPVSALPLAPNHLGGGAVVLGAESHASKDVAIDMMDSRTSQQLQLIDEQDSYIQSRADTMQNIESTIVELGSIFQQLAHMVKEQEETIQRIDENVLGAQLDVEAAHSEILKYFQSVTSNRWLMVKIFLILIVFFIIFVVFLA
UniProt O60506: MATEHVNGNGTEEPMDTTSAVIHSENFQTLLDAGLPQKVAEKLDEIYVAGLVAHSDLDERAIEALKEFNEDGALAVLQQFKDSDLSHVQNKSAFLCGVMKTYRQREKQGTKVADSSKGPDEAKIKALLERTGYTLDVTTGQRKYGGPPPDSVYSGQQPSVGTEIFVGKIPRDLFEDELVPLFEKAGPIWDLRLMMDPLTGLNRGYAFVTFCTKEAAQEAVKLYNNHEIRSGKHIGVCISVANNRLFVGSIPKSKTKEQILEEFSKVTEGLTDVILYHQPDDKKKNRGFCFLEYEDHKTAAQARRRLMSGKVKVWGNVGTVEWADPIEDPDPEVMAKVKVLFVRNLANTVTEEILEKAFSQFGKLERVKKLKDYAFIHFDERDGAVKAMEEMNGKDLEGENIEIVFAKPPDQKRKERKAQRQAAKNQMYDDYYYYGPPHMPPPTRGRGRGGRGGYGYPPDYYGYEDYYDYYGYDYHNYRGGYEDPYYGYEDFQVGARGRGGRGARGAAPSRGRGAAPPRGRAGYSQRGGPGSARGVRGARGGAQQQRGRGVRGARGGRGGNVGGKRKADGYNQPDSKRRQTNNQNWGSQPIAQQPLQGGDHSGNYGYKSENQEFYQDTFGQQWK
UniProt Q9UNE7: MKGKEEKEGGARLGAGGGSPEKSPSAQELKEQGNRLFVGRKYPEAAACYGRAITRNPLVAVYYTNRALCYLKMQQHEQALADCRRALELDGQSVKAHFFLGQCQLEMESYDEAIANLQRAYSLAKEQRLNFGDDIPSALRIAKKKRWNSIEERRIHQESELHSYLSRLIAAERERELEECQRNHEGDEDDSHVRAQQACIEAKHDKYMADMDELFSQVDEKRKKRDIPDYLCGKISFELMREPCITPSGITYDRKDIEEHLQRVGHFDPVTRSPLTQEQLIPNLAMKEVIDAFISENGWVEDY
UniProt P55854, whole entry, looked up: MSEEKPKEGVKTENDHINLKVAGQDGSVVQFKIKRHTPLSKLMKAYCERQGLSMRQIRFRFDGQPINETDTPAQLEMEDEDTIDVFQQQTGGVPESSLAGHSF
UniProt Q9Y2Z0: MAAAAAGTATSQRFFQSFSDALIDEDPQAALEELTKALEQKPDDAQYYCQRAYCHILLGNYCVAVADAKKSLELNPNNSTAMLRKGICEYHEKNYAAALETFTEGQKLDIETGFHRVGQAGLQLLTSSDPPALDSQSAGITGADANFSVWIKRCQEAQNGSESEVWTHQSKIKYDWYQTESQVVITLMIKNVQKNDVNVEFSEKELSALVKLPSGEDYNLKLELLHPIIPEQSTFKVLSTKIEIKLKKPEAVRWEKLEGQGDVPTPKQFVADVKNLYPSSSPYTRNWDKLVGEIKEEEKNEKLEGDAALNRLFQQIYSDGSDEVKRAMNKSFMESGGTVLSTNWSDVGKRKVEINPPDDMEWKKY
UniProt Q6P1X5, whole entry, looked up: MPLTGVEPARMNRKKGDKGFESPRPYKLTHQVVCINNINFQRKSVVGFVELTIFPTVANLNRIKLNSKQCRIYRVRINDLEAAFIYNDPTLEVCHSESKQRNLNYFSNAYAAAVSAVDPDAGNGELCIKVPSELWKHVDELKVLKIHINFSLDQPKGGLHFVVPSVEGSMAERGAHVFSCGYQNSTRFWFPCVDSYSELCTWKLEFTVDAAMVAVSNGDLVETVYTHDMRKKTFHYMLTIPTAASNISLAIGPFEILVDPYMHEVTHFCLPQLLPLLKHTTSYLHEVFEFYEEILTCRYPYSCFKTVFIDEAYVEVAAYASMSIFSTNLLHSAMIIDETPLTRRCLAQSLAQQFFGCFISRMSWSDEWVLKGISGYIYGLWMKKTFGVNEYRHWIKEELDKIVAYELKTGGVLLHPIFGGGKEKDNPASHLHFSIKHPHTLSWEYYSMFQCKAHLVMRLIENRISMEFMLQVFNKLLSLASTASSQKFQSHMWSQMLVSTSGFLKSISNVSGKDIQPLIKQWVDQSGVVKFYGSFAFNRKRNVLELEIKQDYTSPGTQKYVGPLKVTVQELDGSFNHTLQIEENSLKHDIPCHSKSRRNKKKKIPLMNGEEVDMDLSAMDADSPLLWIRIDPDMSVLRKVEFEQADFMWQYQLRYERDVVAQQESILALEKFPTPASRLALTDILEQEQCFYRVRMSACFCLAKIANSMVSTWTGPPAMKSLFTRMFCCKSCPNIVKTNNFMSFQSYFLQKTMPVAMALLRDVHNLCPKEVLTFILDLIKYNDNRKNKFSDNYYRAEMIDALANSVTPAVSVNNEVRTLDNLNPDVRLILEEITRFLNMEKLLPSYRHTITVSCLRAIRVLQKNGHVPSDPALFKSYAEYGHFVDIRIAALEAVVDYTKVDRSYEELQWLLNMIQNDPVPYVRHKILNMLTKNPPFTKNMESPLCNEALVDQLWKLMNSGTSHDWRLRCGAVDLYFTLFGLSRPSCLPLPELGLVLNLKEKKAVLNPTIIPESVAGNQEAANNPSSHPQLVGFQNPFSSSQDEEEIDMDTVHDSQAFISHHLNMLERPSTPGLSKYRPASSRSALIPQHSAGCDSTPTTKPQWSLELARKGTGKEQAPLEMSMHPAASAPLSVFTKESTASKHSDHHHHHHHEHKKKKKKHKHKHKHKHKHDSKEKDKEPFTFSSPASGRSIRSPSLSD
UniProt Q9P289: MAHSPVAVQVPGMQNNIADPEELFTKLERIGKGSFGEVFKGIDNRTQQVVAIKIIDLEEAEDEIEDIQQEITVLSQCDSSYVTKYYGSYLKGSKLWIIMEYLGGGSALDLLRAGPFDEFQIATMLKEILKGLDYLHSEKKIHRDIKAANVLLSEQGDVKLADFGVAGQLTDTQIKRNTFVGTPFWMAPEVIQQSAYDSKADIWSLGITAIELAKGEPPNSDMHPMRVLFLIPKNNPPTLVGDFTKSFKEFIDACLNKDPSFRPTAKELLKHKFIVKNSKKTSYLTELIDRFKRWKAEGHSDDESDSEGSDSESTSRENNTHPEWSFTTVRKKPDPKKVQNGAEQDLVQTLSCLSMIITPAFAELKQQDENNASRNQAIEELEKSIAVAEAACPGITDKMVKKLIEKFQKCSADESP
UniProt P63165, whole entry, looked up: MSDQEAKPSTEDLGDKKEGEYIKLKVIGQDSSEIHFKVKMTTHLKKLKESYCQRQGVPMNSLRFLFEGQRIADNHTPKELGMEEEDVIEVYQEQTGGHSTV
UniProt Q15208: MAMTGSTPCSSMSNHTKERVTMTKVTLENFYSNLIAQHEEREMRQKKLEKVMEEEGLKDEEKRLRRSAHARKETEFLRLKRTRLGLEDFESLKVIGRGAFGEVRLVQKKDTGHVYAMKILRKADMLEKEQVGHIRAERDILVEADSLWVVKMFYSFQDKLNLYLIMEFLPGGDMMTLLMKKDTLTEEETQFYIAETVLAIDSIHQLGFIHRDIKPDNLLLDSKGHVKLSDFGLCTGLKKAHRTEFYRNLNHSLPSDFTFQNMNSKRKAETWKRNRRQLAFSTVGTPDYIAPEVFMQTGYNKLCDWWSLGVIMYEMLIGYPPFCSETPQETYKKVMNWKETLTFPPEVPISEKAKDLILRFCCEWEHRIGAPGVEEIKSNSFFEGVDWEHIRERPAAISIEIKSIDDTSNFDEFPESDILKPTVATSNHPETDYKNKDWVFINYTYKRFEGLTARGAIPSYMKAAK

Columns and labels:
Experiment in all cases: log2 fold change, soluble protein after heating vs DMSO (PISA); higher = thermal stabilisation; K562 lysate, 10 uM; active = over 0.2 and 3.5 SD of the protein, either way, in both replicates (recomputed)
nilotinib = compound: Cc1cn(-c2cc(NC(=O)c3ccc(C)c(Nc4nccc(-c5cccnc5)n4)c3)cc(C(F)(F)F)c2)cn1 [nilotinib]
In short: (§1)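 Soluble protein was defined as the supernatant remaining after 21,000xg for 90 min, following pooling of heated aliquots and adjustment to 0.5% NP-40 at 4°C. Before that, crude K562 extract at 1 mg/mL protein in PBS pH 7.4 with 1 mM MgCl2 was treated with 10 μM compound for 30 min and heated for 3 min across 48°C-58°C. Quantification used TMTpro 16plex LC-MS/MS with channel sums equalised, and values are log-two fold changes in thermal stability relative to solvent controls from duplicates.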

[1] = compound: Cc1nc(Nc2n[nH]c3c2CN(C(=O)N[C@H](CN(C)C)c2ccccc2)C3(C)C)c2sccc2n1
In short: as §1

dasatinib = compound: Cc1nc(Nc2ncc(C(=O)Nc3c(C)cccc3Cl)s2)cc(N2CCN(CCO)CC2)n1 [dasatinib]
In short: as §1

[2] = compound: Cc1ncc(-c2ccnc(Nc3ccc(S(C)(=O)=O)cc3)n2)n1C(C)C
In short: as §1

[3] = compound: Cn1cc(-c2ccc3c(c2)CCN3C(=O)Cc2cccc(C(F)(F)F)c2)c2c(N)ncnc21
In short: as §1

quisinostat = compound: Cn1cc(CNCC2CCN(c3ncc(C(=O)NO)cn3)CC2)c2ccccc21 [quisinostat]
In short: as §1

tipifarnib = compound: Cn1cncc1[C@@](N)(c1ccc(Cl)cc1)c1ccc2c(c1)c(-c1cccc(Cl)c1)cc(=O)n2C [tipifarnib]
In short: as §1

[4] = compound: NC(=O)Nc1cc(-c2cccc(F)c2)sc1C(=O)N[C@H]1CCCNC1
In short: as §1

[5] = compound: NC(=O)c1cnc(N[C@@H]2CCCC[C@@H]2N)nc1Nc1cccc(-n2nccn2)c1
In short: as §1

[6] = compound: NC1(c2ccc(-c3nc4ccn5c(=O)[nH]nc5c4cc3-c3ccccc3)cc2)CCC1
In short: as §1

[7] = compound: NCC(=O)Nc1ccc(-n2nc(C(F)(F)F)cc2-c2ccc3c(ccc4ccccc43)c2)cc1
In short: as §1

vorinostat = compound: O=C(CCCCCCC(=O)Nc1ccccc1)NO [vorinostat]
In short: as §1

silmitasertib = compound: O=C(O)c1ccc2c(c1)nc(Nc1cccc(Cl)c1)c1ccncc12 [silmitasertib]
In short: as §1

[8] = compound: O=C1NC(=O)C(c2cnc3ccccn23)=C1c1cn2c3c(cc(F)cc13)CN(C(=O)N1CCCCC1)CC2
In short: as §1

entospletinib = compound: c1cn2cc(-c3ccc4cn[nH]c4c3)nc(Nc3ccc(N4CCOCC4)cc3)c2n1 [entospletinib]
In short: as §1

Target | log2 fold change (nilotinib) | log2 fold change [1] | log2 fold change (dasatinib) | log2 fold change [2] | log2 fold change [3] | log2 fold change (quisinostat) | log2 fold change (tipifarnib) | log2 fold change [4] | log2 fold change [5] | log2 fold change [6] | log2 fold change [7] | log2 fold change (vorinostat) | log2 fold change (silmitasertib) | log2 fold change [8] | log2 fold change (entospletinib)
STX17 (UniProt P56962) | inactive: -0.065 | inactive: 0.006 | inactive: -0.076 | inactive: 0.017 | inactive: -0.051 | inactive: 0.012 | inactive: 0.04 | inactive: -0.007 | inactive: 0.057 | inactive: -0.044 | inactive: 0.131 | inactive: 0.13 | inactive: 0.011 | inactive: -0.063 | inactive: 0.021
TAF12 (UniProt Q16514) | inactive: 0.174 | inactive: 0 | inactive: -0.038 | inactive: 0.046 | inactive: 0.003 | inactive: -0.039 | inactive: -0.021 | inactive: -0.027 | inactive: 0.042 | inactive: 0.049 | inactive: 0.148 | inactive: -0.172 | inactive: 0.046 | inactive: 0.01 | inactive: -0.035
SYMPK (UniProt Q92797) | inactive: 0.007 | inactive: 0.014 | inactive: -0.064 | inactive: -0.008 | inactive: -0.004 | inactive: -0.026 | inactive: -0.019 | inactive: 0.06 | inactive: 0.007 | inactive: -0.019 | inactive: 0.007 | inactive: -0.156 | inactive: 0.01 | inactive: 0.016 | inactive: 0.01
TACC1 (UniProt O75410) | inactive: 0.044 | inactive: 0.018 | inactive: 0.013 | inactive: -0.038 | inactive: 0.015 | inactive: 0.023 | inactive: -0.085 | inactive: -0.002 | inactive: -0.008 | inactive: -0.018 | inactive: -0.03 | inactive: 0.014 | inactive: 0.024 | inactive: 0.005 | inactive: -0.02
STOML2 (UniProt Q9UJZ1) | inactive: -0.017 | inactive: -0.01 | inactive: 0.004 | inactive: 0.017 | inactive: -0.001 | inactive: 0.035 | inactive: 0.005 | inactive: 0.018 | inactive: 0.002 | inactive: -0.003 | inactive: 0.03 | inactive: 0.129 | inactive: -0.021 | inactive: 0.028 | inactive: 0.011
SUDS3 (UniProt Q9H7L9) | inactive: -0.049 | inactive: 0.019 | inactive: 0.002 | inactive: -0.02 | inactive: 0.028 | inactive: -0.086 | inactive: -0.016 | inactive: 0.017 | inactive: 0.001 | inactive: 0.034 | inactive: 0.016 | inactive: -0.017 | inactive: -0.017 | inactive: -0.008 | inactive: 0.002
TAF6 isoform 3 (UniProt P49848) | inactive: 0.027 | inactive: 0.02 | inactive: -0.029 | inactive: 0.05 | inactive: -0.016 | inactive: -0.147 | inactive: 0.039 | inactive: 0.042 | inactive: -0.059 | inactive: 0.024 | inactive: 0.066 | inactive: -0.075 | inactive: 0.078 | inactive: -0.002 | inactive: 0.024
STX5 (UniProt Q13190) | inactive: 0.05 | inactive: 0.02 | inactive: -0.066 | inactive: -0.01 | inactive: 0.043 | inactive: -0.021 | inactive: -0.029 | inactive: 0.022 | inactive: 0.054 | inactive: -0.066 | inactive: -0.016 | inactive: -0.11 | inactive: 0.01 | inactive: -0.003 | inactive: -0.029
SYNCRIP (UniProt O60506) | inactive: -0.026 | inactive: -0.002 | inactive: -0.013 | inactive: -0.019 | inactive: -0.006 | inactive: 0.047 | inactive: 0.032 | inactive: -0.013 | inactive: 0.009 | inactive: 0.01 | inactive: -0.005 | inactive: 0.049 | inactive: 0.008 | inactive: -0.028 | inactive: 0.014
STUB1 (UniProt Q9UNE7) | inactive: 0.031 | inactive: -0.027 | inactive: -0.037 | inactive: 0.027 | inactive: 0.004 | inactive: -0.06 | inactive: -0.011 | inactive: 0.053 | inactive: 0.015 | inactive: 0.004 | inactive: -0.012 | active: -0.33 | inactive: 0.015 | inactive: 0.006 | inactive: 0.019
SUMO3 isoform 2 (UniProt P55854) | inactive: 0.013 | inactive: -0.002 | inactive: 0.027 | inactive: 0.021 | inactive: -0.046 | inactive: 0.049 | inactive: 0.073 | inactive: -0.041 | inactive: -0.044 | inactive: 0.024 | inactive: 0 | inactive: 0.162 | inactive: -0.087 | inactive: 0.024 | inactive: -0.001
STRAP isoform 2 (UniProt Q9Y3F4) | inactive: 0.009 | inactive: 0.013 | inactive: -0.001 | inactive: 0.015 | inactive: -0.017 | inactive: 0.031 | inactive: 0.038 | inactive: -0.019 | inactive: -0.019 | inactive: 0.017 | inactive: 0.004 | inactive: 0.047 | inactive: -0.042 | inactive: -0.019 | inactive: 0.021
SUGT1 (UniProt Q9Y2Z0) | inactive: 0.015 | inactive: 0.004 | inactive: 0.005 | inactive: 0.02 | inactive: -0.007 | inactive: 0.053 | inactive: 0.025 | inactive: -0.028 | inactive: 0.004 | inactive: -0.02 | inactive: 0.029 | inactive: 0.066 | inactive: -0.002 | inactive: -0.036 | inactive: 0.004
STK4 (UniProt Q13043) | inactive: -0.077 | inactive: 0.343 | inactive: 0.214 | inactive: 0.177 | inactive: 0.282 | inactive: -0.105 | inactive: -0.047 | active: 0.585 | inactive: 0.134 | inactive: -0.016 | inactive: 0.054 | inactive: -0.134 | inactive: 0.024 | inactive: 0.041 | inactive: 0.047
TAF2 (UniProt Q6P1X5) | inactive: 0.006 | inactive: 0.013 | inactive: -0.015 | inactive: 0.005 | inactive: -0.004 | inactive: -0.015 | inactive: -0.002 | inactive: 0.034 | inactive: 0.01 | inactive: 0.004 | inactive: 0.034 | inactive: -0.106 | inactive: 0.004 | inactive: 0.05 | inactive: 0.001
STK39 (UniProt Q9UEW8) | inactive: -0.104 | inactive: 0.071 | inactive: -0.045 | inactive: -0.024 | inactive: 0.046 | inactive: -0.084 | inactive: -0.053 | inactive: 0.053 | inactive: 0.058 | inactive: -0.082 | inactive: -0.01 | active: -0.633 | inactive: 0.028 | inactive: -0.006 | inactive: -0.026
STK26 (UniProt Q9P289) | inactive: -0.033 | active: 0.25 | inactive: 0.102 | inactive: 0.044 | inactive: 0.029 | inactive: -0.035 | inactive: -0.013 | inactive: 0.104 | inactive: 0.002 | inactive: -0.008 | inactive: -0.027 | inactive: -0.032 | inactive: 0.035 | inactive: -0.045 | inactive: -0.026
SYNGR2 (UniProt O43760) | inactive: -0.009 | inactive: 0.044 | inactive: 0.001 | inactive: 0.095 | inactive: -0.02 | inactive: -0.051 | inactive: 0.033 | inactive: -0.022 | inactive: -0.082 | inactive: -0.049 | inactive: -0.255 | inactive: 0.083 | inactive: 0.013 | inactive: 0.083 | inactive: 0.02
SUMO1 (UniProt P63165) | inactive: 0.006 | inactive: -0.001 | inactive: -0.023 | inactive: 0.016 | inactive: -0.016 | inactive: -0.042 | inactive: 0.002 | inactive: -0.064 | inactive: -0.033 | inactive: 0.126 | inactive: -0.042 | inactive: 0.044 | inactive: 0.076 | inactive: -0.086 | inactive: -0.031
STK38 (UniProt Q15208) | inactive: -0.009 | active: 0.858 | inactive: -0.003 | inactive: 0.078 | inactive: 0.064 | inactive: -0.14 | inactive: -0.029 | active: 0.563 | inactive: 0.054 | inactive: 0.036 | inactive: 0.021 | active: -0.424 | inactive: 0.16 | inactive: -0.029 | inactive: 0
STX16 isoform 2 (UniProt O14662) | inactive: 0.019 | inactive: -0.037 | inactive: -0.048 | inactive: -0.039 | inactive: -0.012 | inactive: 0.068 | inactive: -0.01 | inactive: -0.016 | inactive: 0.041 | inactive: 0.041 | inactive: -0.018 | inactive: -0.115 | inactive: -0.041 | inactive: -0.019 | inactive: -0.016

Record cards, from the list above. Order of values: log2 fold change (nilotinib) | log2 fold change [1] | log2 fold change (dasatinib) | log2 fold change [2] | log2 fold change [3] | log2 fold change (quisinostat) | log2 fold change (tipifarnib) | log2 fold change [4] | log2 fold change [5] | log2 fold change [6] | log2 fold change [7] | log2 fold change (vorinostat) | log2 fold change (silmitasertib) | log2 fold change [8] | log2 fold change (entospletinib)
TACC1 (UniProt O75410) is entered as inactive: 0.044 | inactive: 0.018 | inactive: 0.013 | inactive: -0.038 | inactive: 0.015 | inactive: 0.023 | inactive: -0.085 | inactive: -0.002 | inactive: -0.008 | inactive: -0.018 | inactive: -0.03 | inactive: 0.014 | inactive: 0.024 | inactive: 0.005 | inactive: -0.02
STUB1 (UniProt Q9UNE7) is entered as inactive: 0.031 | inactive: -0.027 | inactive: -0.037 | inactive: 0.027 | inactive: 0.004 | inactive: -0.06 | inactive: -0.011 | inactive: 0.053 | inactive: 0.015 | inactive: 0.004 | inactive: -0.012 | active: -0.33 | inactive: 0.015 | inactive: 0.006 | inactive: 0.019
